# Assay results as given in paper PMC6136712, “Ex vivo drug sensitivity testing as a means for drug repurposing in esophageal adenocarcinoma” (PLoS ONE, 2018).
# Where a name gives a salt, the structure may show the parent alone.
# System: normal esophageal epithelium cell line EACN42
# Assay: FDA library drug sensitivity testing (CellTiter-Glo, 72 h), normal control cells
# Format: cell-based, human
# Set-up: key to DSS: modified drug sensitivity score (DSSmod) from dose-response curve fit
# Procedure: The normal esophageal epithelium cell line EACN42 was established in the Capobianco laboratory. The cell lines was derived from human normal epithelium and immortalized using HPV E6-E7.
# Drug sensitivity testing (DST) was performed as described previously. […] Individual drugs were dissolved in 100% DMSO and tested in duplicates starting at a maximal test concentration of 10μM then over a 20,000-fold concentration range to generate dose response curves. Wells with assay buffer containing DMSO served as negative controls. 1000 exponentially growing cells were seeded per well in 384-well micro-titer plates and incubated in the presence of compounds in a humidified environment at 37°C and 5% CO2. After 72 hours of treatment, cell viability was assessed by measuring ATP levels via bioluminescence (CellTiter-Glo, Promega) according to manufactures recommendations. Interpretation of curve parameters was performed according to the modified drug sensitivity scoring (DSSmod) function developed by Swords et al. […] Given in this way, the sDSSmod incorporated information on each drug’s potency, efficacy, effect range and therapeutic index, making it possible to prioritize compounds over multiple parameters using a single numerical metric. […] All calculations and scoring routines are implemented in MatLab and additional curve fitting and statistical analyses are performed in GraphPad prism.
SMILES,DSS (drug sensitivity score),"EC50 (Homo sapiens, cell viability (ATP), max test concentration 10μM)"
COC(=O)[C@H](CCCN=C(N)N)NS(=O)(=O)c1ccc(C)cc1 [TAME],0,
CCN[C@H]1C[C@H](C)S(=O)(=O)c2sc(S(N)(=O)=O)cc21 [Dorzolamide HCL],,5.33 µM
